Several values for one entry are separate records, joined by “and”; a condition that tells them apart may be missing. Equal entries are not always repeated. The list shows a part of the results. Single values are uncertain here, since repeats match poorly.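 Test systems: triple-negative MDA-MB-231 breast cancer cells and their brain-metastatic MDA-MB-231BRM derivative, each stably carrying empty vector, full-length GLI1 or truncated tGLI1. Viability after 48 h was read by CellTiter-Blue and expressed against 1% DMSO vehicle. A compound was tGLI1-selective if it lowered viability 20% more in tGLI1 cells than in vector and GLI1 cells.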
Legend:
Assay in all cases: cell viability relative to vehicle (DMSO) control (fraction); higher = more viable cells (less growth inhibition)
Details in all cases: treatment time 48 h
MDA-MB-231 GLI1 = system: MDA-MB-231 GLI1
MDA-MB-231 Vector = system: MDA-MB-231 Vector
MDA-MB-231 tGLI1 = system: MDA-MB-231 tGLI1
MDA-MB-231BRM GLI1 = system: MDA-MB-231BRM GLI1
MDA-MB-231BRM Vector = system: MDA-MB-231BRM Vector
MDA-MB-231BRM tGLI1 = system: MDA-MB-231BRM tGLI1

Compound	cell viability (MDA-MB-231 GLI1; 0.05 µM)	cell viability (MDA-MB-231 GLI1; 0.5 µM)	cell viability (MDA-MB-231 GLI1; 5 µM)	cell viability (MDA-MB-231 Vector; 0.05 µM)	cell viability (MDA-MB-231 Vector; 0.5 µM)	cell viability (MDA-MB-231 Vector; 5 µM)	cell viability (MDA-MB-231 tGLI1; 0.05 µM)	cell viability (MDA-MB-231 tGLI1; 0.5 µM)	cell viability (MDA-MB-231 tGLI1; 5 µM)	cell viability (MDA-MB-231BRM GLI1; 0.05 µM)	cell viability (MDA-MB-231BRM GLI1; 0.5 µM)	cell viability (MDA-MB-231BRM GLI1; 5 µM)	cell viability (MDA-MB-231BRM Vector; 0.05 µM)	cell viability (MDA-MB-231BRM Vector; 0.5 µM)	cell viability (MDA-MB-231BRM Vector; 5 µM)	cell viability (MDA-MB-231BRM tGLI1; 0.05 µM)	cell viability (MDA-MB-231BRM tGLI1; 0.5 µM)	cell viability (MDA-MB-231BRM tGLI1; 5 µM)
CN1CCN(c2ccc3nc(-c4c(N)c5c(F)cccc5[nH]c4=O)[nH]c3c2)CC1 [Dovitinib (TKI-258) Dilactic Acid]	1.1	1.02	0.0644	1.32	1.2	0.0403	1.33	1.02	-0.0709	0.921	0.795	0.44	0.901	0.837	0.429	0.934	0.845	0.455
CC(=O)Nc1cccc(-n2c(=O)n(C3CC3)c(=O)c3c(Nc4ccc(I)cc4F)n(C)c(=O)c(C)c32)c1	0.655	0.75	0.64	0.588	0.58	0.692	0.703	0.591	0.55	1.07	1.13	0.959	1.12	1.14	0.885	1.12	0.983	0.777
COc1cc(F)c(F)c(Nc2ccc(I)cc2F)c1NS(=O)(=O)C1(C[C@H](O)CO)CC1 [Refametinib (RDEA119, Bay 86-9766)]	1.24	1.22	0.68	1.42	0.831	0.434	1.16	1.13	0.454	0.981	1	0.991	0.974	1	1.02	0.956	1.01	0.886
C[C@H](NC(=O)/C(C#N)=C/c1cccc(Br)n1)c1ccccc1	1.25	1.21	-0.0479	1.24	1.29	-0.0847	1.17	1.16	-0.00293	0.992	1.06	1.11	0.995	1.02	0.665	1.02	1.08	0.947
Cc1ncc(-c2ccnc(Nc3ccc(S(C)(=O)=O)cc3)n2)n1C(C)C	1.44	1.07	0.039	1.31	0.892	0.157	1.43	1.04	0.0698	1.08	1.17	0.854	1.11	1.18	0.84	1.14	1.21	0.768
CCN(CC)CCCC(C)Nc1nc(C)cc(Nc2ccc3nc(C)cc(N)c3c2)n1 (stereo unspecified)	2.45	3.04	2.04	1.41	1.28	1.22	1.36	1.44	1.29	0.759	0.753	0.574	0.925	0.708	0.651	1.14	1.02	0.987
Cc1cc(O)c2c(c1)C(=O)c1cccc(O)c1C2=O [Chrysophanic Acid]	1.15	1.31	1.11	1.31	1.56	1.39	1.36	1.35	1.21	1	0.995	1.07	1.07	1.03	0.988	1.08	1.08	0.986
COc1cc2nccc(Oc3ccc(NC(=O)C4(C(=O)Nc5ccc(F)cc5)CC4)cc3)c2cc1OC [Cabozantinib malate (XL184)]	1.3	1.64	0.529	1.47	1.36	0.606	1.29	1.37	0.634	1.03	0.94	0.897	1.05	1.06	0.911	0.973	0.97	0.836
NC(=O)c1cnc(N[C@@H]2CCCC[C@@H]2N)nc1Nc1cccc(-n2nccn2)c1	2.23	2.95	0.57	1.45	1.08	0.222	1.35	1.48	0.221	0.828	0.766	0.634	0.92	0.784	0.705	1.17	1.05	0.978
CCS(=O)(=O)Nc1ccc2c(c1)/C(=C(/Nc1ccc(CN3CCCCC3)cc1)c1ccccc1)C(=O)N2 [Hesperadin]	0.762	0.492	0.431	0.701	0.416	0.311	0.754	0.492	0.462	0.414	1.16	0.827	0.633	1.04	0.941	0.958	0.944	0.811
CN(c1ncccc1CNc1nc(Nc2ccc3c(c2)CC(=O)N3)ncc1C(F)(F)F)S(C)(=O)=O	1.31 and 0.918	1.44 and 1.21	0.158 and 0.142	1.31 and 0.747	1.5 and 1.09	0.294 and 0.261	1.47 and 0.888	1.34 and 1.19	0.166 and 0.172	1.07	1 and 0.953	0.764 and 0.74	0.994 and 1.1	1.06 and 0.948	0.764 and 0.714	1.08 and 0.982	1.02 and 0.926	0.718 and 0.674
Cc1cc(Nc2ncc(Cl)c(Nc3ccccc3S(=O)(=O)C(C)C)n2)c(OC(C)C)cc1C1CCNCC1	1.29	1.46	-0.195	1.52	1.23	-0.175	1.39	1.24	-0.212	0.99	0.92	-0.0427	1.07	0.957	0.171	0.964	0.905	-0.0814

Entries of single compounds, looked up by structure. Order of values: cell viability (MDA-MB-231 GLI1; 0.05 µM)	cell viability (MDA-MB-231 GLI1; 0.5 µM)	cell viability (MDA-MB-231 GLI1; 5 µM)	cell viability (MDA-MB-231 Vector; 0.05 µM)	cell viability (MDA-MB-231 Vector; 0.5 µM)	cell viability (MDA-MB-231 Vector; 5 µM)	cell viability (MDA-MB-231 tGLI1; 0.05 µM)	cell viability (MDA-MB-231 tGLI1; 0.5 µM)	cell viability (MDA-MB-231 tGLI1; 5 µM)	cell viability (MDA-MB-231BRM GLI1; 0.05 µM)	cell viability (MDA-MB-231BRM GLI1; 0.5 µM)	cell viability (MDA-MB-231BRM GLI1; 5 µM)	cell viability (MDA-MB-231BRM Vector; 0.05 µM)	cell viability (MDA-MB-231BRM Vector; 0.5 µM)	cell viability (MDA-MB-231BRM Vector; 5 µM)	cell viability (MDA-MB-231BRM tGLI1; 0.05 µM)	cell viability (MDA-MB-231BRM tGLI1; 0.5 µM)	cell viability (MDA-MB-231BRM tGLI1; 5 µM)
`CN1CCN(c2ccc3nc(-c4c(N)c5c(F)cccc5[nH]c4=O)[nH]c3c2)CC1` [Dovitinib (TKI-258) Dilactic Acid] as listed: 1.1	1.02	0.0644	1.32	1.2	0.0403	1.33	1.02	-0.0709	0.921	0.795	0.44	0.901	0.837	0.429	0.934	0.845	0.455
`CCS(=O)(=O)Nc1ccc2c(c1)/C(=C(/Nc1ccc(CN3CCCCC3)cc1)c1ccccc1)C(=O)N2` [Hesperadin] as listed: 0.762	0.492	0.431	0.701	0.416	0.311	0.754	0.492	0.462	0.414	1.16	0.827	0.633	1.04	0.941	0.958	0.944	0.811

From the supplement of paper PMC9454738
